Among all 400,000 compounds or so, about 5,500 (1.4%) were called active. The inconclusive results got no clear call from the source; some entries with a clear call stand among them for comparison. The call rests on the fitted dose curve; in most records, active means well fitted cell-killing curve with a large enough effect; inconclusive means small, poorly fitted or top-dose-only effect, or effect the other way; inactive means flat fitted curve, though single readings scatter. Potencies beside an inconclusive call are fits to weak or partial responses and may not hold up.
Experiment: qHTS assay for MDR1-selective chemotherapeutics: Primary screen using the parental adenocarcinoma cell KB-3-1; further: nearly all actives have a fitted effect of over 60% in size
Conditions: KB-3-1 viability, CellTiter-Glo ATP luminescence, 72 h; activity change, negative = cytotoxic: at 46.1 µM (top of the series)
In short: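 Cytotoxicity in the drug-sensitive parental line KB-3-1 was scored as loss of CellTiter-Glo luminescence following 72 h incubation with compound. Values come from curve fitting of normalized concentration-response data.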
On the % scale 0 is the no-effect control and ±100 the full control effect; potency means the concentration at half of the fitted maximal effect.

SMILES | Potency | activity change, negative = cytotoxic
Cc1c(/C=C(\C#N)C(=O)Nc2cccc(Cl)c2)c2ccccc2n1Cc1ccccc1Cl | inconclusive: 32.6 µM [rising, single point] | –
CC(=O)N/C(=C\c1ccccc1)C(=O)OCc1ccc(F)cc1 | – | inactive: -1.6%
CC1=NN(c2ccc(F)cc2)C(=O)C1C(c1cccc(O)c1)c1c(C)[nH]n(-c2ccc(F)cc2)c1=O (stereo unspecified) | – | inactive: -19.4%
Cc1csc(NC(=O)CSc2nnc(-c3ccco3)n2C)n1 | inconclusive: 18.4 µM [rising, single point] | –
CC(C)(C)c1ccc(Oc2ccc(NC(=O)c3ccco3)cn2)cc1 | – | inactive: 0%
CC1CC(C)(C)CC2(C1)NC(=O)N(CC(=O)N1CCN(Cc3ccc(C#N)cc3)CC1)C2=O (stereo unspecified) | – | inactive: -20.9%
CCCSc1nc(C)cc(C)c1S(=O)(=O)c1ccccc1C | inconclusive: 16.4 µM [cytotoxic, single point] | –
CC(C)(C)c1ccc(OCc2ccc(C(=O)N3CCOCC3)o2)cc1 | – | inactive: -20.3%
Cc1ccc(Nc2nc(NCc3ccco3)nc3nccnc23)cc1Cl | – | inconclusive: 0%
COc1ccc(OC)c(C(=O)NC2CC(C)(C)Cc3c2cnn3-c2ccccc2)c1 (stereo unspecified) | inconclusive: 20.6 µM [cytotoxic, single point] | –
O=C(CCl)NCc1c(Cl)cccc1-n1cccc1 | – | inactive: 0%
CCOc1ccc(CCNC(=O)CS(=O)(=O)Cc2nc(-c3cccc(OC)c3)oc2C)cc1 | inconclusive: 10.3 µM [cytotoxic, partial curve, poor fit] | –
Cc1cccc(C(=O)N[C@H](C(=O)Nc2nc3ccccc3[nH]2)C(C)C)c1 | active: 5.17 µM | –
C=CC1=CCN(S(=O)C(C)(C)C)[C@@H]1CCO (stereo partly specified) | – | inactive: -2.81%
CCOC(=O)C1CCN(C(=O)COC(=O)CNC(=O)c2ccc(OC)cc2)CC1 | – | inactive: -3.42%
CCOc1ccc(NC(=O)CN(C2CCCCC2)S(C)(=O)=O)cc1 | inconclusive: 32.6 µM [cytotoxic, single point] | –
Cc1cccc(N2CCN(CC(=O)Nc3ccc(S(=O)(=O)N4CCOCC4)cc3)CC2)c1C | – | inactive: -24.3%
CC1CCN(c2nc3c(c(=O)[nH]c(=O)n3C)n2CCSc2ncccn2)CC1 | inconclusive: 32.6 µM [rising, partial curve, poor fit] | –
COc1ccc2nc(C)cc(Sc3nc4ccccc4s3)c2c1 | inconclusive: 29.1 µM [cytotoxic, single point] | –
Nc1nc(SCc2ccc([N+](=O)[O-])cc2)c2ncn(C3OC(CO)C(O)C3O)c2n1 (stereo unspecified) | inconclusive: 5.17 µM [cytotoxic, full curve, poor fit] | –
Cc1noc(/C=C/c2cccnc2)c1[N+](=O)[O-] | active: 20.6 µM | –
C[C@H]1CN([C@@H](C)CO)C(=O)Cc2cc(NC(=O)Nc3ccccc3)ccc2O[C@H]1CN(C)Cc1ccccc1 | inconclusive: 29.1 µM [cytotoxic, single point] | –
Cc1ccc(NC(=O)Cc2ccc(Cl)cc2)cc1S(=O)(=O)N1CCCCCC1 | inconclusive: 16.4 µM [cytotoxic, single point] | –
O=C(c1ccccc1)N1CCN(C(=O)c2ccccc2)c2ccccc21 | – | inconclusive: 0%

Sorted by formula weight (falling): part of the list above.
SMILES | Potency | activity change, negative = cytotoxic
Cc1cccc(N2CCN(CC(=O)Nc3ccc(S(=O)(=O)N4CCOCC4)cc3)CC2)c1C | – | inactive: -24.3%
Nc1nc(SCc2ccc([N+](=O)[O-])cc2)c2ncn(C3OC(CO)C(O)C3O)c2n1 (stereo unspecified) | inconclusive: 5.17 µM [cytotoxic, full curve, poor fit] | –
Cc1ccc(NC(=O)Cc2ccc(Cl)cc2)cc1S(=O)(=O)N1CCCCCC1 | inconclusive: 16.4 µM [cytotoxic, single point] | –
Cc1cccc(C(=O)N[C@H](C(=O)Nc2nc3ccccc3[nH]2)C(C)C)c1 | active: 5.17 µM | –
CC(C)(C)c1ccc(Oc2ccc(NC(=O)c3ccco3)cn2)cc1 | – | inactive: 0%
Cc1csc(NC(=O)CSc2nnc(-c3ccco3)n2C)n1 | inconclusive: 18.4 µM [rising, single point] | –
CC(=O)N/C(=C\c1ccccc1)C(=O)OCc1ccc(F)cc1 | – | inactive: -1.6%

(listing goes on)

SMILES | Potency | activity change, negative = cytotoxic
C=CCNc1nc2cc(-c3ccccc3C)sc2c(=O)n1C | active: 20.6 µM | –
Cc1ccc(C(=O)CCC(=O)OCC(=O)N2CCN(S(=O)(=O)c3ccc(C)cc3C)CC2)cc1 | – | inactive: -0.108%
CCN1C(=O)[C@H]2[C@@H](c3ccc(-c4cccc(Cl)c4)cc3)N[C@@](Cc3ccccc3)(C(=O)OC)[C@H]2C1=O | inconclusive: 29.1 µM [cytotoxic, single point] | –
CN(CCc1ccccc1)C(=O)c1ccc(NC(=O)Cc2ccc(NC(=O)C3CCCN(C(=O)CCc4ccccc4)C3)cc2)cc1 (stereo unspecified) | inconclusive: 0.731 µM [cytotoxic, full curve] | –
CCN1CCS/C1=C\C=C\C1=[N+](CC)CCS1 | – | inactive: 0.355%
O=C(NCCOc1ccccc1)c1ccccc1Cl | – | inactive: 17.7%
CCOc1ccc(NC(=O)Cn2nc(-c3ccccc3Cl)n(CC)c2=S)cc1 | inconclusive: 14.6 µM [cytotoxic, single point] | –
Cc1cc(C)nc(NC(N)=NC(C)c2ccccc2)n1 (stereo unspecified) | inconclusive: 29.1 µM [cytotoxic, single point] | –
CCN(CC)CCOc1ccc(/C(=C(\Cl)c2ccccc2)c2ccccc2)cc1 | inconclusive: 29.1 µM [cytotoxic, partial curve, poor fit] | –
CN(C)S(=O)(=O)c1cccc(NC(=O)C2CCCN(C(=O)c3ccc(Cl)cc3)C2)c1 (stereo unspecified) | inconclusive: 2.91 µM [cytotoxic, full curve, poor fit] | –
Cc1ccc(-c2nnn(CC(=O)N(CCO)C(C(=O)NC(C)(C)C)c3ccncc3)n2)cc1 (stereo unspecified) | inconclusive: 23.1 µM [rising, partial curve, poor fit] | –
Cc1cc(NC(=O)CSc2cn(CCNC(=O)c3ccc(Cl)cc3)c3ccccc23)no1 | – | inactive: 9.53%
CC(=O)NC1C(Oc2ccc3c(C)cc(=O)oc3c2)OC(COC(C)=O)C(OC(C)=O)C1OC(C)=O (stereo unspecified) | inconclusive: 9.2 µM [rising, partial curve, poor fit] | –
O=C(Cc1ccccc1)N/N=C\c1ccc(Br)o1 | inconclusive: 8.2 µM [cytotoxic, partial curve, poor fit] | –
O=C(CN1CCCc2ccccc21)N/N=C/c1c(O)ccc2ccccc12 | inconclusive: 29.1 µM [cytotoxic, single point] | –
CCOc1ccccc1NC(=O)c1cccc(NC(=O)C2CCCC2)c1 | – | inconclusive: -23%
CCOC(=O)c1c(NC(=O)CSc2nc3ccccc3o2)sc(C(C)=O)c1C | – | inactive: 5.16%
O=C(COC(=O)c1ccc(NS(=O)(=O)c2cccs2)cc1)NCc1ccco1 | active: 18.4 µM | –
COc1ccc(/C=C2\C(=O)OCc3cc(OC)c(OC)cc32)cc1OC | inconclusive: 29.1 µM [cytotoxic, single point] | –
CCCCNc1nc(Oc2ccc(=O)n(-c3ccccc3)n2)nc(N(C)C)n1 | – | inactive: 4.13%
Cc1[nH]nc2c1C(c1cc(Br)cs1)C(C#N)=C(N)O2 (stereo unspecified) | active: 13 µM | –
CC1(C)C(O)=C(c2nc3ccccc3[nH]2)C(=N)N1c1ccccc1 | inconclusive: 29.1 µM [cytotoxic, single point] | –
O=C(N/N=C/c1cn(-c2ccccc2)nc1-c1ccc(F)cc1)c1ccc2c(c1)OCO2 | inconclusive: 29.1 µM [cytotoxic, partial curve, poor fit] | –
O=C(Nc1cc(Cl)cc(Cl)c1)c1cccc(OC(F)F)c1 | active: 13 µM | –

SMILES | Potency | activity change, negative = cytotoxic
O=C(Nc1ccc(Br)cn1)C1CCCN1S(=O)(=O)c1ccccc1 (stereo unspecified) | inconclusive: 18.4 µM [cytotoxic, partial curve, poor fit] | –
CCC(C)NC(=O)c1ccc2c(c1)N(Cc1cccc(Cl)c1)C(=O)c1ccccc1S2=O (stereo unspecified) | – | inactive: 5.01%
COc1ccc(N2CCN(CCCNC(=O)c3cnn(-c4ccc(F)cc4)c3-n3cccc3)CC2)cc1 | active: 23.1 µM | –
COc1ccc(CC(=O)NCc2ccc(-n3cccc3)cc2)cc1OC | active: 4.11 µM | –
N#CCCn1c(-c2nonc2NC(=O)c2ccccc2Cl)nc2ccccc21 | – | inactive: -4.27%
CCC(NC(=O)CCl)c1ccc(C)cc1 (stereo unspecified) | active: 20.6 µM | –
COc1cc(/C=C/C(=O)OCC(=O)Nc2cc(C)on2)ccc1OCC#N | inconclusive: 23.1 µM [cytotoxic, partial curve, poor fit] | –
O=[N+]([O-])c1ccc(COc2ccc(-c3[nH]ncc3-c3ccccc3)c(O)c2)cc1 | inconclusive: 18.4 µM [cytotoxic, single point] | –
CCN(C(=O)Cn1ncc2c1-c1cc(C)ccc1OC2)c1cc(Cl)ccc1OC | – | inactive: 12.3%
CCCCC(=O)Nc1ncc([N+](=O)[O-])s1 | – | inactive: 17.5%
COc1cc(CN2CCN(Cc3ccc4cc(F)ccc4n3)CC2CCO)cc(OC)c1 (stereo unspecified) | – | inactive: 4.27%
CCOC(=O)c1c(NC(=O)CN2C(=O)c3ccccc3C2=O)sc(Cc2ccc3c(c2)OCO3)c1C | – | inactive: 10.1%
CC(=O)N1c2ccc(S(=O)(=O)N3CCC(C(=O)NCc4ccc(Cl)cc4)CC3)cc2CC1C (stereo unspecified) | inconclusive: 29.1 µM [cytotoxic, partial curve, poor fit] | –
O=C1C=C(N(CCO)Cc2ccccc2)c2ccccc2C1=O | inconclusive: 29.1 µM [cytotoxic, single point] | –
COc1ccc2c(c1)CCc1c(C(=O)NCc3cccnc3)noc1-2 | inconclusive: 29.1 µM [cytotoxic, single point] | –
CCOC(=O)CSc1nc(N)c(C#N)c(CC(C)C)c1C#N | inconclusive: 18.4 µM [rising, partial curve, poor fit] | –
COc1ccc(C(=O)Nc2cccc(C)n2)cc1S(=O)(=O)N1CCCc2ccccc21 | inconclusive: 8.2 µM [cytotoxic, partial curve, poor fit] | –
CN(CCC#N)c1ccc(/C=C(\C#N)c2ccccn2)cc1 | inconclusive: 20.6 µM [cytotoxic, single point] | –
Cn1cnnc1SCC(=O)Nc1ncc(C(F)(F)F)cc1Cl | inconclusive: 0.0461 µM [rising, full curve] | –
O=C(Nc1ccc(Cl)c(Cl)c1)Nc1ccc(Br)cc1F | inconclusive: 29.1 µM [cytotoxic, single point] | –
CN(Cc1ccccc1F)C(=O)c1ccc(NC(=O)CC2SC(N3CCCCC3)=NC2=O)cc1 (stereo unspecified) | – | inactive: 4.99%
CC(=O)Nc1ccc(S(=O)(=O)Nc2cccc(S(=O)(=O)N(C)c3ccccc3)c2)cc1 | inconclusive: 20.6 µM [cytotoxic, single point] | –
CCOC(=O)c1ccccc1NS(=O)(=O)c1c(-c2ccc(C)cc2)csc1C(=O)OC | inconclusive: 29.1 µM [cytotoxic, single point] | –
